{
  "source": "patent EP4600367A1",
  "about": "“ENZYMATIC CLEAVAGE OF N-ALKYL COMPOUNDS AFTER CHEMOLYSIS OF POLYURETHANES” (Covestro Deutschland AG, priority 2024, dated 2025)",
  "target": "T1, AaeUPO (Cyclocybe aegerita, UniProt B9W4V6)",
  "T1 construct": "purchased Aminoverse B.V",
  "T1 sequence (B9W4V6 44-371)": "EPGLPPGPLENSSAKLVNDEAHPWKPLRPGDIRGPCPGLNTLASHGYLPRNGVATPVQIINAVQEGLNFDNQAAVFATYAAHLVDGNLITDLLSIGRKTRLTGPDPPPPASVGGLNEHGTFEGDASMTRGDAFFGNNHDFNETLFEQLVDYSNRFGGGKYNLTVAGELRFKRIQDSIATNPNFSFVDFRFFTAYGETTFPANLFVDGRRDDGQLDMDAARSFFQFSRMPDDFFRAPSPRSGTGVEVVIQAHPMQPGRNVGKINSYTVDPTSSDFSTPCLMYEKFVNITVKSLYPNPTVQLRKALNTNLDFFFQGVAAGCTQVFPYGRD",
  "assay": "Enzymatic N-dealkylation assay UPOs with H2O2, HPLC",
  "type": "biochemical, Agrocybe aegerita",
  "settings": "share of substrate used that was degraded, 4000 µM",
  "method": "Die vier Enzyme UPO #13, UPO #13M1, UPO #13M3 und UPO #13M5 wurden von Aminoverse B.V. bereitgestellt.\nFür UPOs erfolgte die Reaktion im 300 µL Maßstab in Tricine Puffer (100 mM) bei 30 °C für mindestens 4 h und 200 rpm. […] Der Assay wurde mit Zugabe des Co-Substrats H2O2 (1,5 µL einer 200 mM H2O2-Lösung) gestartet, welches alle 30 min wiederholt zugegeben wurde (final 12 µL H2O2).\nAls Negativkontrollen wurden für alle Substrate und Bedingungen Assays ohne Enzymlösung durchgeführt. Alle Assays erfolgten mindestens in Triplikaten.\nZum Abstoppen der enzymatischen Reaktion und Extraktion erfolgte die Verdünnung des Reaktionsansatzes in gleichen Teilen Acetonitril. Die Proben wurden filtriert und die Produktfreisetzung per HPLC analysiert (ZORBAX Eclipse C18 Säule (Partikelgröße von […], 4,6 × 75 mm (Agilent Technologies, Santa Clara, USA), 40 °C, Laufmittel A: Acetonitril mit 5 % Reinstwasser, Laufmittel B: 10 mM Natriumphosphat-Puffer pH 7,0 mit 5 % ACN, Fluss: 1 mL/min). Das Profil der HPLC-Methode ist in Tabelle 3 gezeigt. Tabelle 4 zeigt die Elutionszeiten der Komponenten mit dieser Messmethode. Tabelle 3: Profil der HPLC-Methode.",
  "note": "The name of at least one read-out is uncertain.",
  "data": [
    {"smiles": "CNc1ccc(Cc2ccc(NC)cc2)cc1", "note": "[N,N'-Dimethyl-4,4'-MDA]", "values": [
      {"measurement": "Abbau des eingesetzten Substrates", "value": 62, "unit": "mol%"}
    ]}
  ]
}
